## Primary screen of a compound library

From ChEMBL document CHEMBL3988442, “University of Dundee, Small-Polar-MMV Screening Library” (2021).

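Whole-parasite assay of Trypanosoma brucei over 72 hours; the read-out is not stated. Compounds at 30 µM. Direction is inferred from retests: higher values go with stronger inhibition. Values scatter widely below zero; nearly all retest evidence comes from the higher of the two concentrations used. Size under these conditions: about 64,000 compounds, about 940 of them at 50% or above in at least one test.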

Results are given as percent effect.
How 0% and 100% were set is not recorded. Most values in the screen are low, and negative values occur.
Compounds were drawn at random from those tested, without regard to their results.

With CCCN1CCC(N2CCC(Cn3cc(CC(C)O)nn3)CC2)CC1 (centres undefined) the screen gave -33.26%. COc1ccc(-n2ccnc2-c2cnc(C(C)C)nc2)cc1C(=O)O read -35.1%. With CCOC(C)C(=O)NS(=O)(=O)c1cccc2cc(C)cnc12 (centres undefined) the screen gave -2.288%. With CC(C)N1C(=O)C2(CCN(C)CC2)c2cc(F)ccc21.Cl the screen gave -32.19%. With c1ccc(C2CCCN2C2CCSCC2)nc1 (centres undefined) the screen gave -1.453%. Result for COC(=O)c1ccccc1S(=O)(=O)NC(=O)c1cccc2c1OCCO2 was -38.52%. CN(C)c1nc2c(c(N3CCc4ccccc4C3)n1)CCNC2 read 100.4%.

With O=C(O)C(F)(F)F.[H][C@@]12CCN(Cc3ccco3)[C@]1([H])CC[C@@H](C(=O)NCC1CC1)O2 the screen gave -31.37%. For O=S(=O)(NCc1cccnc1OC1CCCC1)N1CCOCC1 the result was 2.369%. With Cc1nc2cc(C(=O)N(CCC#N)CC3CCCO3)ccc2[nH]1 (centres undefined) the screen gave 18.09%. With COc1cccc(CN(Cc2ccco2)Cc2cnc(C)n2C)c1.O=C(O)CC(O)(CC(=O)O)C(=O)O the screen gave 15.04%. COCCN(C)C(C(=O)O)c1ccc(F)c(Cl)c1 (centres undefined) read -13.94%. With c1cc2cc[nH]c2c(CC2CN(Cc3cscn3)C2)n1 the screen gave -15.51%. With CC(=O)N(C)Cc1ccccc1NCc1c(C)cccc1C the screen gave 10.37%.

CCCN(CCC)CCNc1c(-c2ccccc2)c(=O)c1=O gave 9.174%. Result for Cc1cnn(C2CN(CC(O)c3ccccc3)C2)c1 (centres undefined) was 5.735%. For O=C(O)C(F)(F)F.O=C1CC[C@]2(CC[C@@H](NCc3ccc4c(c3)OCO4)CC2)N1 the result was -11.63%. For CCOCC1CN(Cc2cccnc2)Cc2nn(C)cc21.O=C(O)C(F)(F)F.O=C(O)C(F)(F)F (centres undefined) the result was 31.39%. Cc1ccc(C(=O)N2CCN(Cc3nc(C(C)C)no3)CC2)c(=O)[nH]1 gave -40.13%. With O=C(O)C(F)(F)F.[H][C@@]12C[C@H](C(=O)N3CCCC3)[C@@]([H])(CN(CCC(C)C)C1)O2 the screen gave -47.77%. Fc1ccc(-c2noc([C@@H]3Cc4nc[nH]c4CN3)n2)cc1 gave -7.742%.

Result for Cc1ccc2c(c1)C(=O)NCC1(CCN(C(=O)c3ccccn3)CC1)O2 was 1.622%. Result for Cc1ccccc1CN1CCN(CC(=O)Nc2cccnc2)CC1 was -8.259%. For CC(C)N1CCC(CC(=O)NC(C(=O)O)c2ccc(F)cc2)CC1 (centres undefined) the result was -8.358%. CS(=O)(=O)Nc1cccc(CNC(=O)CCNC(=O)c2cccs2)c1 read -5.2%. CC1(C)CNC(=O)c2nc(-c3nnc(-c4ccccc4)[nH]3)[nH]c2C1 gave -17.87%. For CC(O)CN1CCN(C(=O)CN(C)c2ccc(Cl)cn2)CC1 (centres undefined) the result was -6.79%. With Cn1nnc2c1CCN(CC1CC1)C2COCC1CC1.O=C(O)C(F)(F)F (centres undefined) the screen gave -23.17%.

NC(=O)C1CCN(Cc2cccc(NC(=O)c3ccsc3)c2)CC1 read 50.19%. With CCc1noc(CN2CCN(C(=O)N(C)C)CC2)n1 the screen gave -88.52%. For CN1C(=O)CCCC12CCCN(C(=O)c1cccc(C(F)(F)F)c1)C2 (centres undefined) the result was 2.678%. COc1ccc(OC)c(-n2nnnc2SCC2CCCN(C)C2)c1 (centres undefined) read 18.74%. Cc1cccnc1C(=O)N1CCCC(c2[nH]ncc2S(C)(=O)=O)C1 (centres undefined) read -7.326%. For O=C(CNc1cc(Br)ccc1Br)NC1CCS(=O)(=O)C1 (centres undefined) the result was 32.27%. Result for COCc1nc2nc(O)c3c(n2n1)NC(=O)CC3c1ccc(SC)cc1 (centres undefined) was -13.45%.

For Cc1nc(CCN(C)C(=O)CN2C(=O)OC[C@@H]2c2ccccc2)no1 the result was -24.3%. With Cc1ccc(N2CCCC(NCC(=O)Nc3cc(C)no3)C2)nn1 (centres undefined) the screen gave 7.203%.

Some entries from above, unchanged:

SMILES,Percent Effect
CCCN1CCC(N2CCC(Cn3cc(CC(C)O)nn3)CC2)CC1 (centres undefined),-33.26
CS(=O)(=O)Nc1cccc(CNC(=O)CCNC(=O)c2cccs2)c1,-5.2
Cn1nnc2c1CCN(CC1CC1)C2COCC1CC1.O=C(O)C(F)(F)F (centres undefined),-23.17
COc1ccc(OC)c(-n2nnnc2SCC2CCCN(C)C2)c1 (centres undefined),18.74